In article PMC8301015, “Atypical Bacilliredoxin AbxC Plays a Role in Responding to Oxidative Stress in Radiation-Resistant Bacterium Deinococcus radiodurans” (Antioxidants, 2021):
No constants are given. Whether binding was seen depends on the method and setting. Tags and fused reporters may be left off the sequences shown.

Molecular target: AbxC (atypical BrxC; DR_1832), C-terminal His x 6 tag (Deinococcus radiodurans) (UniProt Q9RTD3)
Assay: non-reducing SDS-PAGE; as a1, with the disulfide reducing agent DTT added for AbxC reduction; both purified

B1: AbxC (atypical BrxC; DR_1832), C-terminal His x 6 tag (enzyme, Deinococcus radiodurans, UniProt Q9RTD3 1-211, looked up)
chain: MTQGQDQVLSPLTTPDEVDQFLKDYPLAAVFKAGTCHKTMQGFGVLETFLQRYELPVGFIRVVDWRPASNHVAELTGLTHHSPQFILFKDGQAQYEVNNWDITPEALGPVFEQQVPQRSGAAQVDAGDSVEPYRQLMQAYLAGQLSDWAFQDQYVTMFRDDASLRSQREFELLSRLFGDPDAYHGGLHQLGAPQDRGDLKARVQSVLDQLG
notes: AbxC (DR_1832), Deinococcus radiodurans R1; monomer 23.7 kDa; single cysteine Cys36; also called putative homolog of BrxC (YtxJ); source: E. coli BL21-CodonPlus (DE3)-RP, purified (Ni-NTA, Superdex 75HR)
binding: no binding (condition: with DTT)
